Measured values as given in patent US6534504B1, “Indazolyloxy propanolamines for improving livestock production” (Eli Lilly and Company, priority 1999, dated 2003).
Some results were stated once for a whole list of compounds, not compound by compound.

Each compound was assayed on cattle (assay: Intravenous administration to cattle: serum NEFA and SUN levels). Conditions: from the data of Table 1.
Format: in vivo, cattle (Angus/Angus cross calves)
From the text: Angus/Angus cross steer calves, both heifers and steers, weighing approximately 282 pounds (128 kg) initially to 788 pounds (358 kg) over the course of these studies, were placed in pens at 5 calves per pen. The cattle were acclimated to the pens for at least 1 week prior to initiating the study.
Calves were fed ad libitum twice daily, (approximately 6-15 pounds (2.7-6.8 kg)/day). During the treatment day, in the A.M. period, the feeding times were staggered to ensure that all animals were fed approximately one hour before the treatments were administered. During the P.M. treatment period, the cattle were fed immediately after receiving the P.M. injection.
After taking a pretreatment (T=0) blood sample from each animal, 40 μg per kilogram of a test compound was administered intravenously in the jugular vein at 6:30 A.M. and 2:30 P.M. Each test compound was administered at a concentration of 1.00-1.25 mg/ml in a treatment vehicle that was a 50/50 mixture of polyethylene glycol 200/water.
A blood sample was taken at fifteen minutes post-treatment (T+15 min). The calves were returned to their respective pens until their next treatment, approximately eight hours later. The next morning at 6:30 A.M. a blood sample was collected from all calves at 24 hours post-treatment (T+24h). All blood samples were analyzed for the non-esterified fatty acid level (NEFA) and serum urea nitrogen level (SUN). The post-treatment NEFA and SUN levels in each individual animal were compared with the levels found before treatment.
`CC(C)(Cc1ccc(Oc2ccc(C(N)=O)cn2)cc1)NC[C@H](O)COc1cccc2[nH]ncc12` [Compound 1] was tested, and the “anabolic and lipolytic activity” value was “possess both anabolic and lipolytic activity”. For `CC(C)(Cc1ccc(Oc2ccc(C#N)cn2)cc1)NC[C@H](O)COc1cccc2[nH]ncc12` [Compound 3], the “anabolic and lipolytic activity” value was “possess both anabolic and lipolytic activity”. With `CC(C)(Cc1ccc(Oc2ccc(C(=O)N3CCOCC3)cn2)cc1)NC[C@H](O)COc1cccc2[nH]ncc12` [Compound 4] the “anabolic and lipolytic activity” value was “possess both anabolic and lipolytic activity”. With `CC(C)(Cc1ccc(Oc2ccc(S(C)(=O)=O)cc2)cc1)NC[C@H](O)COc1cccc2[nH]ncc12` [Compound 5] the “anabolic and lipolytic activity” value was “possess both anabolic and lipolytic activity”.
